## Screening data, single-dose tests

Chains of the proteins cited; added tags and fusions are not shown. Residues count along the entry.
UniProt I6X8D2, whole entry: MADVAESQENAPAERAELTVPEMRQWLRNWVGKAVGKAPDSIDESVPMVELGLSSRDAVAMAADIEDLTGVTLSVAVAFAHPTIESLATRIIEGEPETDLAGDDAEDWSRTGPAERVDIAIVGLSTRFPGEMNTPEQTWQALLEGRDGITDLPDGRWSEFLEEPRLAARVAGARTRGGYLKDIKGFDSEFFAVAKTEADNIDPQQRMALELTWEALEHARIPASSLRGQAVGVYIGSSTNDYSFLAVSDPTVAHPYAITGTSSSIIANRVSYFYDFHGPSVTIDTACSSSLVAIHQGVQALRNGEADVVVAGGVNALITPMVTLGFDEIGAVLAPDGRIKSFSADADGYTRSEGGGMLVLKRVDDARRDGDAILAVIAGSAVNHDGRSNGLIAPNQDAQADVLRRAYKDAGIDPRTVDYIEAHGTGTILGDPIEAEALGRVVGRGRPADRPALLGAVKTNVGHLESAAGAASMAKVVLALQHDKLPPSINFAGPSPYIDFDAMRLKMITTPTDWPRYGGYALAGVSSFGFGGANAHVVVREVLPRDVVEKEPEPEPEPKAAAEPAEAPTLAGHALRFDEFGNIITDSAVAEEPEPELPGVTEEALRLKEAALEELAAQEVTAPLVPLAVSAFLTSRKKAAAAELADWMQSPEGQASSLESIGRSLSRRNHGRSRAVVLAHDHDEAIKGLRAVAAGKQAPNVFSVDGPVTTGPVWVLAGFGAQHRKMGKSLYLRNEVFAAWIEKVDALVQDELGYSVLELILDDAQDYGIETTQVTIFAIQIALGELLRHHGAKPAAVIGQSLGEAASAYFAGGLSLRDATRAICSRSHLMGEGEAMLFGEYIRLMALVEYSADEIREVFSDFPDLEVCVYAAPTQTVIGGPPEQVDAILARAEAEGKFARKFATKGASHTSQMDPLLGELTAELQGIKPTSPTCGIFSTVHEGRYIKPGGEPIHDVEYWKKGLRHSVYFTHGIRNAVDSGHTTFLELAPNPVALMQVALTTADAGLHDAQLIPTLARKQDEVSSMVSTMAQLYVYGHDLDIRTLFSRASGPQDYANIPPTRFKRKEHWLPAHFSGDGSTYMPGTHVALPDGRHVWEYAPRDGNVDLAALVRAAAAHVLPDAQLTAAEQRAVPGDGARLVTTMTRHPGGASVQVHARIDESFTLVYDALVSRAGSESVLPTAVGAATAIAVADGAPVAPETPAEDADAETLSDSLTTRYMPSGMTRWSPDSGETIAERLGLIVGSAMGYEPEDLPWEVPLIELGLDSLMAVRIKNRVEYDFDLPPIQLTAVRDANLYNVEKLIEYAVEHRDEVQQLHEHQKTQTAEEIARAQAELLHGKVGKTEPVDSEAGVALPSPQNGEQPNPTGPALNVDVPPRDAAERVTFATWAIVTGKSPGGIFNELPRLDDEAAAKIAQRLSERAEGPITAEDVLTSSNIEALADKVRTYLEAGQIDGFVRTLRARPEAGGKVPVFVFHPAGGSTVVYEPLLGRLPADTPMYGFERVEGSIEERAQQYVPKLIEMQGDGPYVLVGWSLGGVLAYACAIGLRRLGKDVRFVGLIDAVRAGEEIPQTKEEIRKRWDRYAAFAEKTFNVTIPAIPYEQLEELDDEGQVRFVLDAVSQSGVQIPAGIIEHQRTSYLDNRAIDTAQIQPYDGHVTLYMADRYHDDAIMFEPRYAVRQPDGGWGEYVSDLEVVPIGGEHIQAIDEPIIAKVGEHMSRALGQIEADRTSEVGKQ
UniProt Q4DA54, 1-478: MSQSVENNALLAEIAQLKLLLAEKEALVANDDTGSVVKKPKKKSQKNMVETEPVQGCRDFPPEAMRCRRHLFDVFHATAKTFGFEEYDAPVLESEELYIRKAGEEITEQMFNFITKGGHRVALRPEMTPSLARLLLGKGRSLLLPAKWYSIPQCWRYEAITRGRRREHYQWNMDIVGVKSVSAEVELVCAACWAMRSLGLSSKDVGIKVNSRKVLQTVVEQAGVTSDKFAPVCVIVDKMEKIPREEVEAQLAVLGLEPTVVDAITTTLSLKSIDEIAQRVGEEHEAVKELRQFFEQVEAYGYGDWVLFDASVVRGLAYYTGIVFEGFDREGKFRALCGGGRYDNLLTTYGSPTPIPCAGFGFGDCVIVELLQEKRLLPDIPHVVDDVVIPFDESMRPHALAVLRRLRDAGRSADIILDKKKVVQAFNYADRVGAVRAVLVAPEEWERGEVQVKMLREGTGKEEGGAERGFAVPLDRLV
UniProt P9WPC5, whole entry: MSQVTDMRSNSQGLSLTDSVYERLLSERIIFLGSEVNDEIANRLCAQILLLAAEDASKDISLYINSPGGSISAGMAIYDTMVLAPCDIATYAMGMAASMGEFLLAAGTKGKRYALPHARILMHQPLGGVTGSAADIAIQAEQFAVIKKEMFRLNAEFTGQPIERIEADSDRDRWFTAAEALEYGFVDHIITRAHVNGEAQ
UniProt P9WPC3, whole entry partner: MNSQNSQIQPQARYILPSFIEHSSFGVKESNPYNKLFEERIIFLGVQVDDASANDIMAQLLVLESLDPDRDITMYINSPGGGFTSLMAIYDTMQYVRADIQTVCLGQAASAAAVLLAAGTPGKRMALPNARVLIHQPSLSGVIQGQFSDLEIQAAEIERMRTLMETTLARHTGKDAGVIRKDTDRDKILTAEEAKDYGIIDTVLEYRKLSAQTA
UniProt A4I591, 1-473: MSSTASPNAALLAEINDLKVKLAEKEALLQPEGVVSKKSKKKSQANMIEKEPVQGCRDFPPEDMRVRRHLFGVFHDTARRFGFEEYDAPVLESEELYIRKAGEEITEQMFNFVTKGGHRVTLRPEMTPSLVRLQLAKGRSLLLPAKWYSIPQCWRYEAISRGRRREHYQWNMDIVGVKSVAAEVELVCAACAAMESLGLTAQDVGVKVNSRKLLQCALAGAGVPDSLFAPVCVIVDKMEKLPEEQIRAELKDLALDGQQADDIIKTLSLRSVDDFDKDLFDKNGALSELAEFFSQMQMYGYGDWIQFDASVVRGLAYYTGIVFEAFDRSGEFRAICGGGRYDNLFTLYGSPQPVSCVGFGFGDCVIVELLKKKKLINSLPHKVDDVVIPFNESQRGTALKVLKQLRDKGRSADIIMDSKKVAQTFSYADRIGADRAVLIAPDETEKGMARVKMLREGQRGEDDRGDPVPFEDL

The values are deposited in ChEMBL (CHEMBL3988442, “University of Dundee, Small-Polar-MMV Screening Library” (2021)).

Pks13 thioesterase: 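Polyketide synthase Pks13, Mycobacterium tuberculosis (UniProt I6X8D2). Enzyme assay of the thioesterase domain of polyketide synthase 13; the read-out is not stated. Concentration: 30 µM. Higher reads as stronger inhibition (inferred from which compounds were picked for retests). About 67,000 compounds were tested under these conditions; 0.46% (about 300) showed 50% or more at least once.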
TcHisRS: 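Enzyme assay of histidyl-tRNA synthetase; the read-out is not stated. Target: Histidine-tRNA ligase, Trypanosoma cruzi CL Brener (UniProt Q4DA54). Tested at 30 µM. Direction is inferred from retests: higher values go with stronger inhibition. About 69,000 compounds were tested under these conditions; 0.045% (about 31) showed 50% or more at least once.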
ClpP1P2: 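ClpP1P2, Mycobacterium tuberculosis (UniProt P9WPC5 and UniProt P9WPC3). Protease assay of ClpP1P2, read by the AMC dye that it sets free. Compounds at 50 µM. Direction is inferred from only a few compounds that gave an IC50; most scored high, so higher reads as stronger inhibition. Most other retested compounds had strongly negative values. Size under these conditions: about 69,000 compounds, about 10 of them at 50% or above in at least one test.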
Leishmania in macrophages: 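Cell assay of Leishmania donovani living inside macrophages; the read-out is not stated. Concentration: 30 µM. The record gives no direction; compounds that gave an IC50 in retests scored well above the rest, so higher reads as stronger inhibition. About 69,000 compounds were tested under these conditions; 1.5% (about 1,000) showed 50% or more at least once.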
LiHisRS: 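Enzyme assay of histidyl-tRNA synthetase; the read-out is not stated. Target: Histidine-tRNA ligase, Leishmania infantum (UniProt A4I591). Tested at 30 µM. Higher reads as stronger inhibition (inferred: compounds with an IC50 in retests scored well above the rest). The assay is labelled LdHisRS but filed under L. infantum. Of about 69,000 compounds tested this way, about 410 (0.6%) reached 50% or more in at least one test.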

Values are the deposited “Percent Effect”, in %. The record does not define 0% and 100%; most values in the screen are far below 50% and negative numbers occur (in some assays of this library far below -100). Compounds were drawn at random from those tested, without regard to their results. Two or more numbers in one place are separate tests of the same structure; such repeats can differ widely. A dash means the value is not listed here; it may have been measured.

structure	Pks13 thioesterase	TcHisRS	ClpP1P2	Leishmania in macrophages	LiHisRS
CC(=O)c1c(C)nn(S(=O)(=O)c2ccc(Cl)cc2)c1C	-2.528	7.018	12.22	8.479	12.5
O=C(c1ccnnc1)N1CCN2C[C@H](OCc3ccccn3)C[C@H]2C1	-	15.69	0.3759	-	24
O=C(c1cccc(C2CCNC2)c1)N1CCC(c2ncc[nH]2)CC1 (stereo not drawn)	1.967	7.317	-4.096	22.04	20.48
c1ncc2c(n1)CN(Cc1nc(-c3ccsc3)no1)CC2	-14.06	11.56	-28.57	12.1	23.68
CC(=O)N1CCC(c2nccnc2Nc2cnccn2)CC1	25.86	5.385	-7.331	38.76	9.859
CC(C)NC(=O)CC1(Cn2cnnn2)CCCCC1	37.49	7.317	-2.909	-4.137 & -11.96	18.42
Cc1ccc(-c2nn(-c3cccc(F)c3)cc2CN(C)CCO)o1	23.61	5.419	-3.859	-19.05	11.84
N#Cc1ncn(CCC(=O)Nc2c(Cl)cccc2Cl)n1	-10.78	5.785	7.843	27.14	41.9
O=C(N1CCCCC1)N1CCCC(c2ncncc2-c2ccncc2)C1 (stereo not drawn)	3.882	1.498	-11.19	12.16	6
O=C(NCCn1cccc1)C1CCCN(C2CCCC2)C1 (stereo not drawn)	-6.485	8.293	-13.64	-4	10.17
COCCN1CCC(CNc2cnc3ccccc3n2)CC1	3.445	5.028	-54.42	4.078	5.263
CC1CN(C(=O)c2sccc2Br)CCO1 (stereo not drawn)	-3.785	-1.724	-0.393	5.029	8.036
CC(C)CS(=O)(=O)N1CCC2(CN(c3ccsc3)C(=O)CN2C)C1 (stereo not drawn)	-1.403	3.067	-3.444	-	14.81
Cc1nc(CN2CCN(CCCc3ccccc3)CC2)no1	-18.91	7.447	6.793	9.037	18.57
CN(Cc1cnn(C)c1)C(=O)c1cc2ccccc2c(=O)[nH]1	-8.804	12.07	-2.343	-8.625	11.4
COc1ccccc1CC(=O)NS(C)(=O)=O	-14.11	0	6.241	11.96	8.219
I.c1cc2c(cc1C1(CNC3=NCCN3)CCCC1)OCCO2	-	-	-	5.68	-
CCOc1ccccc1C(=O)N(C)C(C)c1ccc(S(C)(=O)=O)cc1 (stereo not drawn)	-18.87	3.191	5.203	12.19	15.71
CS(=O)(=O)Cc1ccc(C(=O)NCc2ccc(Cl)cc2Cl)cc1	-24.4	1.754	7.615	-17.13	18.42
O=C(c1cccs1)N1C[C@@H]2OCCN(CC3CCCO3)[C@@H]2C1 (stereo partly drawn)	8.567	5.263	-9.094	-	19.35
CC(C)(NCC(=O)NC(=O)NC1CC1)c1ccc2c(c1)OCO2	-12.68	1.163	-10.59	24.33	5.357
CC1CCc2nc(O)c(C(=O)NCCc3cccs3)cc2C1 (stereo not drawn)	-36.24	0	4.686	10.72	10
NC(=O)NC(=O)CCSCc1cc(F)cc2cccnc12	4.853	3.659	-9.172	50.58	13.25
CN(C)c1ncc(-c2cc(C(=O)NCCC#N)n(CC3CC3)c2)cn1.O=C(O)C(F)(F)F	-	-	-	14.24	-
COCCN1C(=O)C2(CCC(C(=O)Nc3cccc(C)c3)CC2)N=C1C (stereo not drawn)	-48.62	3.743	0.4374	19.67	14.53
Cn1ccc2c(C(=O)N3CCCC3c3noc(C4CC4)n3)cccc21 (stereo not drawn)	7.101	2.882	-28.46	-7.67	8.929
CCN(C(=O)c1ccc2nncn2c1)C(C)Cc1ccc(OC)cc1 (stereo not drawn)	-21.59	1.031	-3.687	5.125	14.29
CNC(=O)CCN1CCCCCC1c1ccc(C)o1 (stereo not drawn)	-8.141	-1.961	6.11	14.89	6.4
Cc1nc(CN(C)C2CCN(Cc3ccc(Cl)s3)C2)no1 (stereo not drawn)	4.349	4	-29.37	11.3	0
CN(Cc1cn2c(n1)CN(Cc1ccc(F)cc1)CC2)Cc1ccco1	5.592	4.082	-7.339	-	21
Cc1cc(C)c(CNC(=O)NCCCNc2ccccn2)c(=O)[nH]1	-15.18	4.217	-6.105	4.036	15.38
Cc1cc(NC(=O)C(C)N2CCN(c3ccccc3F)CC2)no1 (stereo not drawn)	-2.267	12.02	10.33	4.216	17.07
Cc1ncc2c(n1)CN(Cc1nnc(Cc3ccccc3)o1)CC2	-11.08	20.31	6.126	20.56	55.38
COc1ccc(CNc2cnn(C)c(=O)c2Cl)cc1	-8.136	4.52	-11.04	56.65	13.79
O=C(N1CCCC1)N1CCCC2(CCN(c3ccsc3)C2=O)C1 (stereo not drawn)	-4.539	7.143	-2.12	-27.26	9
CCNc1cc2c(nn1)CCN(C(=O)c1ccnc(-n3ccnc3)c1)C2	-	8.876	-42.82	20.13	21.43
O=C(C1CCOCC1)N1C[C@H]2C[C@H](OCc3ccccc3)C[C@H]2C1	0.7011	4.981	2.836	-	12.86
O[C@@H]1C[C@@](CNCc2ccc(Cl)cc2)(COc2cccnc2)C[C@@H]1O	-	2.174	-7.86	-	22.97
Cc1ccc(CN2CCC3(CCC(=O)N3CC(=O)N(C)C)CC2)s1	-13.82	0.4808	0.534	-	21.1
CN(C)CCn1c2c(ccc1=O)CCN(C(=O)c1ccoc1)CC2	-19.51	5.607	-6.881	-	6.944
CN(C(=O)COc1ccc(F)cc1)[C@@H]1CC[C@@H](n2ccnc2)[C@@H]1O	-0.9977	5.556	0.2019	-6.967 & 10.41	18.56
COc1ccc(SCC2CNc3nc4ccccc4c(=O)n32)cc1 (stereo not drawn)	-14.72	6.25	-14.16	24.33	22.92

The first 3 entries again:

structure,Pks13 thioesterase,TcHisRS,ClpP1P2,Leishmania in macrophages,LiHisRS
CC(=O)c1c(C)nn(S(=O)(=O)c2ccc(Cl)cc2)c1C,-2.528,7.018,12.22,8.479,12.5
O=C(c1ccnnc1)N1CCN2C[C@H](OCc3ccccn3)C[C@H]2C1,-,15.69,0.3759,-,24
O=C(c1cccc(C2CCNC2)c1)N1CCC(c2ncc[nH]2)CC1 (stereo not drawn),1.967,7.317,-4.096,22.04,20.48